These are yes or no findings as the source states them, for the method shown. Binding seen in cells or lysates may run through a third protein. Here binding means that the protein was enriched with, or labelled near, the bait; the list need not be complete.
Target: TAP-tagged Hat1p (S. cerevisiae) (UniProt Q12341)
Experiment: affinity purification with mass spectrometry; TAP-tagged bait purified from soluble extracts of large-scale log-phase yeast cultures; purified preparations analysed by gel-free tandem mass spectrometry and by gel electrophoresis with MALDI-TOF; silver-stained gel

By UniProt entry, the sequences of proteins in these tests, tags left out.
UniProt Q12341: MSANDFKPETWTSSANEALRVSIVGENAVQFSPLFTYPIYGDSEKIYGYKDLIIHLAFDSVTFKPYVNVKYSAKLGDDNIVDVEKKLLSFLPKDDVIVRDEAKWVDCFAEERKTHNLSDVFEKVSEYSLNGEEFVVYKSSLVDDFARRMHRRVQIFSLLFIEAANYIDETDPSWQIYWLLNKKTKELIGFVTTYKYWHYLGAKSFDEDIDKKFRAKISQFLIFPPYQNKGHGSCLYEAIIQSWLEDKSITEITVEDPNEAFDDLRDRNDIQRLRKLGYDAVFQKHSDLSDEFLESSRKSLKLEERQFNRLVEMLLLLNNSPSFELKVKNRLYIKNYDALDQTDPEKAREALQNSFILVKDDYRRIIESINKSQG

binding: binds
B1: Hat2p (protein, UniProt P39984 1-401)
chain: MENQEKPLSVDEEYDLWKSNVPLMYDFVSETRLTWPSLTVQWLPTPVQELDGGFIKQELIIGTHTSGEEENYLKFAEINLPKEILSNEDPQEEAGEEYQSSLPAPRSNIRITAKYEHEEEITRARYMPQDPNIVATINGQGTVFLYSRSEGLQSTLKFHKDNGYALSFSTLVKGRLLSGSDDHTVALWEVGSGGDPTKPVRTWNDLHSDIINDNKWHNFNKDLFGTVSEDSLLKINDVRANNTTIDTVKCPQPFNTLAFSHHSSNLLAAAGMDSYVYLYDLRNMKEPLHHMSGHEDAVNNLEFSTHVDGVVVSSGSDNRLMMWDLKQIGAEQTPDDAEDGVPELIMVHAGHRSSVNDFDLNPQIPWLVASAEEENILQVWKCSHSLPIVGGPPKVNKDIIS
